Values from PubChem BioAssay AID1224826 (NIAID, 2016).

Assay: 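Knock-downs that raise or lower Tnf reporter signal after endotoxin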 (primary screen)
Cells: RAW264.7 G9 macrophages from mouse bearing reporters for p65 (GFP) and the Tnf promoter (mCherry)
Reagent: siRNA pool against mouse genes, 100 nM
Duration: 16 h of LPS stimulation, after 2 days of siRNA transfection
Conditions: bacterial lipopolysaccharide (Salmonella minnesota R595), 10 ng/ml
Detection: 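Nuclear mCherry signal of the Tnf promoter reporter measured by imaging after background removal, scaled to each plate median and turned into robust z-scores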
Direction: Tnf reporter robust z-score: higher = stronger Tnf promoter reporter signal after LPS
Call rule: 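a well counts as active at a score of -1.3 or below (Tlr4 knock-down control median) or above 3 (raised signal); controls and wells holding fewer than 50 cells are excluded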
Calls: active = Tnf reporter clearly lowered or raised; inactive = no clear change in Tnf reporter
Shown is a random part of about 17,000 reagents. Over the whole deposit, about 1,110 (6.6%) got an active call. 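Active means lowered or raised reporter signal; replicate intensities are raw and not normalised per plate.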 Entries without a mark were called inactive. Not all columns of the deposit are shown.

Kcnj12
- Tnf reporter robust z-score: -0.12
- fewer than 50 cells in well: enough cells in well

Cstl1
- Tnf reporter robust z-score: 0.75
- fewer than 50 cells in well: enough cells in well

Erlin1
- Tnf reporter robust z-score: 0.23
- fewer than 50 cells in well: enough cells in well

Sdr16c5
- Tnf reporter robust z-score: 2.36
- fewer than 50 cells in well: enough cells in well

Usp17lc
- Tnf reporter robust z-score: 1.2
- fewer than 50 cells in well: enough cells in well

Tbx18
- Tnf reporter robust z-score: 0
- fewer than 50 cells in well: enough cells in well

Kcns2
- Tnf reporter robust z-score: 0.11
- fewer than 50 cells in well: enough cells in well

Sorted by “Tnf reporter robust z-score” (low to high): 3 of the entries above
Kcnj12
- Tnf reporter robust z-score: -0.12
- fewer than 50 cells in well: enough cells in well

Erlin1
- Tnf reporter robust z-score: 0.23
- fewer than 50 cells in well: enough cells in well

Cstl1
- Tnf reporter robust z-score: 0.75
- fewer than 50 cells in well: enough cells in well

The results go on.
Rho
- Tnf reporter robust z-score: -0.2
- fewer than 50 cells in well: enough cells in well

Coch
- Tnf reporter robust z-score: -0.9
- fewer than 50 cells in well: enough cells in well

Il20ra
- Tnf reporter robust z-score: 0.19
- fewer than 50 cells in well: enough cells in well

Surf6
- Tnf reporter robust z-score: -0.25
- fewer than 50 cells in well: enough cells in well

Themis
- Tnf reporter robust z-score: -0.74
- fewer than 50 cells in well: enough cells in well

Nr2c1
- Tnf reporter robust z-score: -0.6
- fewer than 50 cells in well: enough cells in well

B430217B02Rik (retired record)
- Tnf reporter robust z-score: 0.32
- fewer than 50 cells in well: enough cells in well

Rpl6
- fewer than 50 cells in well: fewer than 50 cells per well; well left out of calls

Kbtbd3
- Tnf reporter robust z-score: -0.76
- fewer than 50 cells in well: enough cells in well

Abhd6
- fewer than 50 cells in well: fewer than 50 cells per well; well left out of calls

Samd5
- Tnf reporter robust z-score: -0.92
- fewer than 50 cells in well: enough cells in well

Orai3
- Tnf reporter robust z-score: 0.37
- fewer than 50 cells in well: enough cells in well

Asic4
- Tnf reporter robust z-score: -0.59
- fewer than 50 cells in well: enough cells in well

Cap2
- Tnf reporter robust z-score: -0.17
- fewer than 50 cells in well: enough cells in well
